Results deposited as PubChem BioAssay AID504764 (Drosophila RNAi Screening Center, 2011)

Purpose: 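Genes whose knock-down alters Notch-dependent transcription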 (primary screen)
Cell system: Drosophila Kc167 cells
Reagents: long dsRNA against Drosophila genes
Time to read-out: about 5 days (4 days dsRNA, then 24 h after transfection)
Treatment: transfection of constitutively active membrane-tethered Notch lacking the extracellular domain, read 24 h later
Detection: 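Firefly luciferase from an E(spl)m3 reporter with active Notch, plus control-promoter and uninduced reporter wells for normalisation; unnormalised counts, duplicate wells a and b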
Scale: induced reporter light, run 1, well a and induced reporter light, run 1, well b: higher = more light from the Notch target reporter with active Notch; control promoter light, run 1, well a and control promoter light, run 1, well b: higher = more light from the viral control promoter (cell number, transfection, viability); uninduced reporter light, run 1, well a: higher = more light from the Notch target reporter without active Notch
Hit rule: 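Wells with low control signal or poorly matching duplicates excluded; duplicates averaged; per source plate, z beyond ±2 for induced/control log2 ratio or beyond ±1.8 for induced/uninduced marks a hit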
Meaning of the calls: active = modifier hit (raised or lowered Notch signal); inactive = not a hit
The screen tested about 22,000 reagents; below is a random part of those with a known target gene and a result. Over the whole deposit, 403 (1.9%) got an active call. 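Unnormalised raw counts per well; ratio z-scores behind the hit calls and whether each hit raises or lowers signal are not deposited.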 Reagent sequences are not shown. Not stated in the record: the amount of reagent.

sws [DRSC18843] showed induced reporter light, run 1, well a = 84405; induced reporter light, run 1, well b = 57255; control promoter light, run 1, well a = 1.21e5; control promoter light, run 1, well b = 92830; uninduced reporter light, run 1, well a = 5150; inactive.
For CG30376 [DRSC05086], the entry reads induced reporter light, run 1, well a = 67530; induced reporter light, run 1, well b = 76090; control promoter light, run 1, well a = 1.10e5; control promoter light, run 1, well b = 99240; uninduced reporter light, run 1, well a = 3135; inactive.
For CG31928 [DRSC00293], the entry reads induced reporter light, run 1, well a = 2.06e5; induced reporter light, run 1, well b = 2.08e5; control promoter light, run 1, well a = 2.19e5; control promoter light, run 1, well b = 2.11e5; uninduced reporter light, run 1, well a = 20515; inactive.
For spaw [DRSC06824] the deposit lists induced reporter light, run 1, well a = 2.38e5; induced reporter light, run 1, well b = 2.61e5; control promoter light, run 1, well a = 1.67e5; control promoter light, run 1, well b = 1.82e5; uninduced reporter light, run 1, well a = 18938; active.
For Ir68a [DRSC10599], the values are induced reporter light, run 1, well a = 86860; induced reporter light, run 1, well b = 75845; control promoter light, run 1, well a = 1.13e5; control promoter light, run 1, well b = 61795; uninduced reporter light, run 1, well a = 4435; inactive.
For Gr28b [DRSC02291] the deposit lists induced reporter light, run 1, well a = 1.51e5; induced reporter light, run 1, well b = 1.35e5; control promoter light, run 1, well a = 1.23e5; control promoter light, run 1, well b = 1.06e5; uninduced reporter light, run 1, well a = 9115; inactive.
Against Gr28b [DRSC02292], the entry reads induced reporter light, run 1, well a = 1.19e5; induced reporter light, run 1, well b = 1.03e5; control promoter light, run 1, well a = 1.21e5; control promoter light, run 1, well b = 77430; uninduced reporter light, run 1, well a = 5820; inactive.

2 successive records from above, quoted:
spaw [DRSC06824] | induced reporter light, run 1, well a: 2.38e5; induced reporter light, run 1, well b: 2.61e5; control promoter light, run 1, well a: 1.67e5; control promoter light, run 1, well b: 1.82e5; uninduced reporter light, run 1, well a: 18938; activity call: active
Ir68a [DRSC10599] | induced reporter light, run 1, well a: 86860; induced reporter light, run 1, well b: 75845; control promoter light, run 1, well a: 1.13e5; control promoter light, run 1, well b: 61795; uninduced reporter light, run 1, well a: 4435; activity call: inactive

The list goes on.
For CG11404 [DRSC11656], the entry reads induced reporter light, run 1, well a = 95710; induced reporter light, run 1, well b = 1.26e5; control promoter light, run 1, well a = 1.26e5; control promoter light, run 1, well b = 1.00e5; uninduced reporter light, run 1, well a = 8855; inactive.
Silencing of CG10927 [DRSC06014] came out at: induced reporter light, run 1, well a = 79855; induced reporter light, run 1, well b = 1.08e5; control promoter light, run 1, well a = 1.59e5; control promoter light, run 1, well b = 1.67e5; uninduced reporter light, run 1, well a = 6850; inactive.
CG18130 [DRSC19790] showed induced reporter light, run 1, well a = 1.29e5; induced reporter light, run 1, well b = 1.23e5; control promoter light, run 1, well a = 2.34e5; control promoter light, run 1, well b = 2.13e5; uninduced reporter light, run 1, well a = 10485; inactive.
For osp [DRSC01409] the deposit lists induced reporter light, run 1, well a = 1.33e5; induced reporter light, run 1, well b = 95475; control promoter light, run 1, well a = 1.06e5; control promoter light, run 1, well b = 1.13e5; uninduced reporter light, run 1, well a = 9975; inactive.
Depletion of osp [DRSC03585] gave: induced reporter light, run 1, well a = 1.39e5; induced reporter light, run 1, well b = 1.90e5; control promoter light, run 1, well a = 1.14e5; control promoter light, run 1, well b = 1.07e5; uninduced reporter light, run 1, well a = 13520; inactive.
After knock-down of GPHR [DRSC07075], the screen gave induced reporter light, run 1, well a = 91710; induced reporter light, run 1, well b = 95590; control promoter light, run 1, well a = 1.21e5; control promoter light, run 1, well b = 1.05e5; uninduced reporter light, run 1, well a = 8370; inactive.
Against Ucp4B [DRSC02665], the entry reads induced reporter light, run 1, well a = 1.39e5; induced reporter light, run 1, well b = 1.15e5; control promoter light, run 1, well a = 1.78e5; control promoter light, run 1, well b = 1.67e5; uninduced reporter light, run 1, well a = 10540; inactive.
Osi23 [DRSC15074] showed induced reporter light, run 1, well a = 1.23e5; induced reporter light, run 1, well b = 1.25e5; control promoter light, run 1, well a = 1.63e5; control promoter light, run 1, well b = 1.70e5; uninduced reporter light, run 1, well a = 11795; inactive.
Against msd1 [DRSC08383], the entry reads induced reporter light, run 1, well a = 1.08e5; induced reporter light, run 1, well b = 1.25e5; control promoter light, run 1, well a = 2.03e5; control promoter light, run 1, well b = 1.85e5; uninduced reporter light, run 1, well a = 5645; inactive.
Against Tet [DRSC08550], the entry reads induced reporter light, run 1, well a = 1.07e5; induced reporter light, run 1, well b = 1.10e5; control promoter light, run 1, well a = 2.59e5; control promoter light, run 1, well b = 2.23e5; uninduced reporter light, run 1, well a = 8370; inactive.
Silencing of X11Lbeta [DRSC18156] resulted in: induced reporter light, run 1, well a = 76785; induced reporter light, run 1, well b = 91095; control promoter light, run 1, well a = 1.21e5; control promoter light, run 1, well b = 96670; uninduced reporter light, run 1, well a = 6845; inactive.
For X11Lbeta [DRSC18158], the entry reads induced reporter light, run 1, well a = 1.00e5; induced reporter light, run 1, well b = 1.22e5; control promoter light, run 1, well a = 1.89e5; control promoter light, run 1, well b = 1.79e5; uninduced reporter light, run 1, well a = 7385; inactive.
